Test results as given in publication PMC9231133.
Results are given in words; binding and its absence hold for the method and conditions named. Binding seen in cells or lysates may run through a third protein. Some binding calls cover weakened binding; strength is not graded here.

By UniProt entry, the sequences of proteins in these tests, tags left out. Residues count along the entry.
UniProt Q13153, residues 70-117: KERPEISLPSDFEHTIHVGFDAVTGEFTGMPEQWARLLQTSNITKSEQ
UniProt P60953: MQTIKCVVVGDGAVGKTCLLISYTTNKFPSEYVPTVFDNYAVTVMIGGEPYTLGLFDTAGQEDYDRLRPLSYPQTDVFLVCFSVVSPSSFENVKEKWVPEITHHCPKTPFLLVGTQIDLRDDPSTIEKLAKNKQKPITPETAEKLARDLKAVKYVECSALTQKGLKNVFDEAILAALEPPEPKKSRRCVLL

How the values were obtained:
[1] = molecular target: PAK-PBD (pGEXTK-Pak-1 70-117) on glutathione beads (UniProt Q13153); experiment: pull-down; only the target purified
[2] = molecular target: PAK-PBD (pGEXTK-Pak-1 70-117) on glutathione beads (UniProt Q13153); experiment: pull-down; control HaCaT lysates loaded with 200 µM GTP-gamma-S (150 mM EDTA, 15 min, room temperature, stopped with 600 mM MgCl2), then PAK-PBD glutathione beads for 1 h; Cdc42 western blot; only the target purified

Question: For “Cdc42 GTPase (from UniProt P60953 1-191)”, which binding [1] is on record?
Answer: The binding was “binds”.

Question: And the binding [2]?
Answer: Its binding is “binds”.
